From the supplement of paper PMC8616043 come the findings set out here.

Where a name gives a salt, the structure may show the parent alone. Some of the results follow. This data set is noisy: repeats of one test often differ as much as different tests do.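 Human U-2 OS cells stably expressing a GFP sensor with a nuclear import signal and classical export signal were transfected to produce PR50, a 50-repeat proline–arginine dipeptide from ALS/FTD gene C9ORF72. Nuclear-minus-cytoplasm GFP was scaled from DMSO (low) to PR-only (high), scored against plate test wells; strongly negative scores marked PR-reversing hits.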

For this test, the system named is U-2 OS NCT-C biosensor cells expressing PR50. The test is described as follows: Z-score of normalised NCT-C biosensor translocation index in PR50-expressing cells; higher = more nuclear biosensor (more disrupted nuclear export). The following applies: 3 µM; 24 h.
Turning to `Nc1nnc(-c2cccc(Cl)c2Cl)c(N)n1` [Lamotrigine isethionate], the Z-score is inactive: -0.653.

Consider `Nc1nnc(-c2cccc(Cl)c2Cl)c(N)n1` [Lamotrigine], for which the Z-score is inactive: -0.143.

`CN1[C@@H]2CC[C@H]1C[C@@H](OC(c1ccccc1)c1ccccc1)C2` [Benztropine Mesylate]: the Z-score is inactive: -0.0851.

For the compound `CN1[C@@H]2CC[C@H]1C[C@@H](OC(c1ccccc1)c1ccccc1)C2` [Benztropine mesylate], the Z-score is inactive: 2.74.

Regarding `C[C@@H]1O[C@@H](OC[C@H]2O[C@@H](Oc3c(-c4ccc(O)c(O)c4)oc4cc(O)cc(O)c4c3=O)[C@H](O)[C@@H](O)[C@@H]2O)[C@H](O)[C@H](O)[C@H]1O` [Rutin], the Z-score is inactive: -0.303.

Regarding `Cn1cc(/C=C/C(=O)c2cccc(F)c2)cc1/C=C/C(=O)NO`, the Z-score is inactive: -1.36.

Regarding `CC(=O)OCC(=O)[C@@]12OC3(CCCC3)O[C@@H]1C[C@H]1[C@@H]3CCC4=CC(=O)C=C[C@]4(C)[C@@]3(F)[C@@H](O)C[C@@]12C` [Amcinonide], the Z-score is inactive: -0.638.

Regarding `C/C(O)=C(\C#N)C(=O)Nc1ccc(C(F)(F)F)cc1` [Teriflunomide], the Z-score was inactive: 0.0979.

Regarding `COc1nc(C)cnc1NS(=O)(=O)c1cccnc1-c1ccc(-c2nnco2)cc1` [Zibotentan], the Z-score is inactive: -0.625.

With `Nc1ccccc1NC(=O)CCCCCCC(=O)Nc1ccccc1`, the Z-score is inactive: -1.27.

For the compound `C[C@@H]1O[C@@H](O[C@H]2[C@H](Oc3cc(O)c4c(c3)O[C@H](c3ccc(O)cc3)CC4=O)O[C@H](CO)[C@@H](O)[C@@H]2O)[C@H](O)[C@H](O)[C@H]1O` [Naringin], the Z-score was inactive: -0.446.

Turning to `O=C1CC(c2ccc(O)cc2)Oc2cc(O[C@@H]3O[C@H](CO)[C@@H](O)[C@H](O)[C@H]3O)cc(O)c21` (stereo partly drawn) [Naringenin-7-O-glucoside], the Z-score was inactive: -0.0673.

On to `N[C@@H](CC(=O)N1CCn2c(nnc2C(F)(F)F)C1)Cc1cc(F)c(F)cc1F` [Sitagliptin Phosphate], for which the Z-score was inactive: -0.603.

With `OC[C@H]1O[C@@H](O[C@@H]2OC=C[C@H]3[C@H](O)[C@@H]4O[C@]4(CO)[C@@H]23)[C@H](O)[C@@H](O)[C@@H]1O` [Catalpol], the Z-score is inactive: -1.11.

In the case of `Nc1c(S(=O)(=O)O)cc(Nc2ccc(Nc3nc(Cl)nc(Nc4cccc(S(=O)(=O)O)c4)n3)c(S(=O)(=O)O)c2)c2c1C(=O)c1ccccc1C2=O` [Reactive Blue 2], the Z-score was inactive: -0.775.

`c1ccc(CN2CCC3(CCCc4ccccc43)CC2)cc1` [L-687,384  hydrochloride]: the Z-score is inactive: 0.77.

For the compound `CNCC[C@@H](Oc1ccccc1C)c1ccccc1` [Atomoxetine·HCl], the Z-score was inactive: -0.123.

For the compound `CNCC[C@@H](Oc1ccccc1C)c1ccccc1` [Tomoxetine hydrochloride], the Z-score was inactive: -0.0382.

Turning to `COCCCOc1ccnc(C[S+]([O-])c2nc3ccccc3[nH]2)c1C` (stereo not drawn) [Rabeprazole·Na], the Z-score was inactive: -0.078.

Turning to `COCCCOc1ccnc(C[S+]([O-])c2nc3ccccc3[nH]2)c1C` (stereo not drawn) [Rabeprazole sodium], the Z-score was inactive: 0.409.

Turning to `CC(=O)/N=c1/sc(S(N)(=O)=O)nn1C` [Methazolamide], the Z-score is inactive: -0.732.

With `CC1=CC(=O)c2ccccc2C1=O` [Menadione], the Z-score was inactive: -1.06.

As for `N=C(N)N1CCc2ccccc2C1` [Debrisoquin sulfate], the Z-score was inactive: -0.299.

As to `O=C(O)Cc1ccc(O)c(O)c1` [3,4-Dihydroxyphenylacetic acid], the Z-score is inactive: -0.578.

For `CCCc1nc2c(C)cc(-c3nc4ccccc4n3C)cc2n1Cc1ccc(-c2ccccc2C(=O)O)cc1` [Telmisartan], the Z-score was inactive: 0.351.

As for `CCCCC1C(=O)N(c2ccccc2)N(c2ccccc2)C1=O` [Phenylbutazone], the Z-score was inactive: -0.9.

For the compound `N=C(N)SCCN` [2-(2-Aminoethyl) isothiourea diHBr], the Z-score was inactive: 0.144.

For `Clc1ccc(COC(Cn2ccnc2)c2ccc(Cl)cc2Cl)cc1` (stereo not drawn) [Econazole Nitrate], the Z-score was inactive: -0.136.

Consider `C[C@]12CC[C@@H]3c4ccc(O)cc4CC[C@H]3[C@@H]1[C@@H](O)[C@@H](O)[C@@H]2O` [Estetrol], for which the Z-score was inactive: 0.756.

Consider `Clc1ccccc1C(c1ccccc1)(c1ccccc1)n1ccnc1` [Clotrimazole], for which the Z-score is inactive: 0.0289.

As to `NC(=O)NO` [Hydroxyurea], the Z-score was inactive: 0.0476.

With `CO/N=C1\CN(c2nc3c(cc2F)c(=O)c(C(=O)O)cn3C2CC2)CC1CN` (stereo not drawn) [Gemifloxacin mesylate], the Z-score was inactive: -0.12.

For the compound `CO/N=C1\CN(c2nc3c(cc2F)c(=O)c(C(=O)O)cn3C2CC2)CC1CN` (stereo not drawn) [Gemifloxacin], the Z-score is inactive: 1.54.

On to `Cc1ncc(-c2c[nH]c3ccccc23)o1` [Pimprinine], for which the Z-score was inactive: -0.742.

Consider `COc1cc2c(cc1OC)[C@H]1[C@@H](C)c3ccc(OC)c(OC)c3CN1CC2` [Corydaline], for which the Z-score was inactive: -0.427.

Turning to `CN1CCC[C@H]1c1cccnc1` [Nicotine], the Z-score is inactive: -0.0818.

As to `CN1CCC[C@H]1c1cccnc1` [(-)-Nicotine], the Z-score was inactive: -0.291.

`CCCC(C(=O)OCCN(CC)CC)(c1ccccc1)c1ccccc1` [SKF-525A  hydrochloride]: the Z-score was inactive: -0.978.

On to `CC(C)(C)c1ccc(S(=O)(=O)NCc2ccc(C(=O)Nc3cccnc3)cc2)cc1`, for which the Z-score is inactive: -1.3.

For the compound `CC(C)=CCC/C(C)=C/COc1ccc2ccc(=O)oc2c1` [Auraptene], the Z-score is inactive: -0.547.

Turning to `COc1cc(CC(=O)O)ccc1O` [4-Hydroxy-3- methoxy phenylacetic acid], the Z-score was inactive: -0.167.

For `CCCCC#Cc1nc(NC)c2ncn([C@@H]3O[C@H](CO)[C@@H](O)[C@H]3O)c2n1`, the Z-score was inactive: 0.362.

`N[C@@H](Cc1ccc(F)cc1)C(=O)O` [p-Fluoro-L- phenylalanine]: the Z-score was inactive: -0.958.

Regarding `CC[C@]1(O)C[C@@H]2CN(CCc3c([nH]c4ccccc34)[C@@](C(=O)OC)(c3cc4c(cc3OC)N(C)[C@H]3[C@@](O)(C(=O)OC)[C@H](OC(C)=O)[C@]5(CC)C=CCN6CC[C@]43[C@@H]65)C2)C1` [Vinblastine Sulfate], the Z-score was inactive: 1.74.

Take `C[C@H]1CC[C@@H](C(C)(C)O)CC2=C1CC[C@@H]2C` [(-)-Guaiol]: the Z-score was inactive: -0.547.

As for `CCC(C)CNCC(=O)N1CCc2sccc2C1COc1cccc(C)c1` (stereo not drawn) [RU-SKI 43  maleate], the Z-score is inactive: -1.09.

For `COC1=C(OC)C(=O)c2ccccc2C1=O` [2,3-Dimethoxy-1,4- naphthoquinone], the Z-score was inactive: -0.00462.

Regarding `COc1ccc(/C=C2\COc3ccc(C)cc3C2=O)cc1O`, the Z-score was inactive: -0.44.

Turning to `CN(C)CCC(c1ccccc1)c1ccccn1` (stereo not drawn) [Pheniramine maleate], the Z-score is inactive: -0.555.

As to `Cc1c(O)cccc1C(=O)N[C@@H](CSc1ccccc1)[C@H](O)CN1C[C@H]2CCCC[C@H]2C[C@H]1C(=O)NC(C)(C)C` [Nelfinavir Mesylate], the Z-score was inactive: -0.322.

Turning to `Nc1nc(=O)c2c([nH]1)NCC(CNc1ccc(C(=O)N[C@@H](CCC(=O)O)C(=O)O)cc1)N2C=O` (stereo partly drawn) [Leucovorin Calcium Pentahydrate], the Z-score is inactive: -0.971.

As for `CN(C)C(=O)N=NC(=O)N(C)C` [N,N,N',N'-  Tetramethylazodic arboxamide], the Z-score was inactive: 0.729.

As to `C=CCc1ccccc1OCC(O)CNC(C)C` (stereo not drawn) [Alprenolol hydrochloride], the Z-score was inactive: 0.109.

As for `NC[C@H]1CC[C@H](C(=O)O)CC1` [Tranexamic Acid], the Z-score is inactive: -0.314.

Regarding `CC(=O)OC(C)C[N+](C)(C)C` (stereo not drawn) [Acetyl-beta- methylcholine chloride], the Z-score is inactive: 0.197.

On to `CC(=O)OC(C)C[N+](C)(C)C` (stereo not drawn) [Methacholine Chloride], for which the Z-score is inactive: 0.14.

Regarding `CCCCC[C@H](CC(=O)NO)C(=O)N[C@H](C(=O)N1CCC[C@H]1CO)C(C)C` [Actinonin], the Z-score was inactive: 0.736.

In the case of `Cc1nc(N=Nc2ccc(S(=O)(=O)O)cc2S(=O)(=O)O)c(COP(=O)(O)O)c(C=O)c1O`, the Z-score is inactive: -0.7.

For `Cc1ccc(O)c([C@H](CCN(C(C)C)C(C)C)c2ccccc2)c1` [Tolterodine Tartrate], the Z-score was inactive: -0.0508.

With `COc1cc2c(NC3CCN(C4CCCCC4)CC3)nc(N3CCCN(C(C)C)CC3)nc2cc1OCCCN1CCCCC1`, the Z-score is inactive: -0.405.

Regarding `CCN1CCCC1CNC(=O)c1cc(S(N)(=O)=O)ccc1OC` (racemic) [(±)-Sulpiride], the Z-score was inactive: 1.78.

Take `O=C(O)c1cc(=O)c2c(OCC(O)COc3cccc4oc(C(=O)O)cc(=O)c34)cccc2o1` [Cromolyn·Na (Disodium Cromoglycate)]: the Z-score is inactive: 1.2.

Turning to `CC[C@]12CCCN3CCc4c(n(c5ccccc45)[C@@](O)(C(=O)OC)C1)[C@@H]32` [Vincamine], the Z-score was inactive: 0.566.

Regarding `CCOC(=O)c1ccc(C#Cc2ccc3c(c2)C(C)(C)CCS3)nc1` [Tazarotene], the Z-score was inactive: -0.104.

Consider `CC(C)N(CCC(=O)c1ccc2ccccc2c1)Cc1ccccc1`, for which the Z-score is inactive: -0.807.

Turning to `O=c1cc(O)cc(/C=C/c2ccc(O)c(O)c2)o1` [Hispidin], the Z-score was inactive: 0.12.

For `COc1c(O)cc(O)c2c(=O)cc(-c3ccccc3)oc12` [Wogonin], the Z-score was inactive: -0.411.

Regarding `CCN1CCC[C@H]1CNC(=O)c1cc(S(N)(=O)=O)ccc1OC` [(S)-(-)-Sulpiride], the Z-score is inactive: -0.69.
